In PubChem BioAssay AID1347423 (Functional Genomics Laboratory (NCATS/FGL), 2020):
Out of some 52,000 sequences screened, about 210 (0.4%) were called active.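 Rule for the calls: active = gene whose silencing raises cell survival under the drug, median off-target-corrected z-score across its silencing RNAs 2 or more; inactive = the rest.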 The list shows a part of the results.

Assay: Resistance to Poly (ADP-Ribose) Polymerase inhibitor: Gene Identification via Genome-wide siRNA Screen
Conditions: mouse BRCA2 R2336H ES cells, olaparib, CellTiter-Glo viability; active compounds read high
How it was run: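 Genome-wide siRNA screen (3 siRNAs/gene, 20 nM) in mouse ES cells carrying hypomorphic BRCA2 R2336H; olaparib 500 nM added 48 h post-transfection, CellTiter-Glo viability 72 h later. Normalized to plate-median negative control; MAD z-scores, gene median, seed-adjusted.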

Sequence	z-score
GUGCUACUGCCUGCCAUUCTT against Sprrl5	inactive: 0.157
GGUCAUCUCAGACCUCCUCTT against Pde6a	inactive: 2.45
GGGCUUUAAGGAAAAGUUUTT against 2010110M21Rik	inactive: -0.358
CCCAAUACAUGAGCUUCUGTT against Ch25h	inactive: 0.36
GGCUUUUCUAUGUUUGAGATT against Pde6d	inactive: 0.751
GGCUCUGAACGUAUCCUACTT against Card10	inactive: 0.747
GGUGGCUAGUUUUAUUACUTT against Thtpa	inactive: 0.685
GGGCUCCUGUCUAAAGGAATT against Cd200r2	inactive: -0.488
CCACUGCUUAAUCCUAUGATT against Olfr741	inactive: -0.624
GCUCUCAUUAGCAUUAUCGTT against Gria1	active: -0.366
CCCUAGUUUAUCUCCGGAUTT against Lhx1	inactive: 1.44
CUACCUACUCCAUGUGGUGTT against MGI:1915703	inactive: -0.426
GCUACAUUUCUACUCAAAGTT against Dkk2	inactive: 0.866
GCCCUAGUGAGAGGAAACCTT against 4930538K18Rik	inactive: 0.45
GACCCUAGCUCACUUUGGUTT against LOC433873	inactive: 1.19
GCUUGAGGAAUUUACGGCGTT against Cetn3	inactive: -0.0954
CGAGAUUUAUAUGGUGUCUTT against 6530406M24Rik	inactive: -1.19
CUGGGUUACUUCACUAAGGTT against MGC117568	inactive: 3.29
GGAAGGUGAAGCCAGUUUCTT against AI429613	inactive: 0.205
GCACUAAUCAAUAUCUAGGTT against Klf8	inactive: 0.674
GCUAAUACGAUUUACUUUGTT against Cntn6	inactive: 0.131
GCAGAUGAAUCCAUUCUGATT against 8430415E04Rik	inactive: -0.588
CGCACUGAGUCUGAAUAUGTT against Hibch	inactive: -0.231
GCUAAUAUUAGGCUACAUCTT against Evi2a	inactive: -1.06
GGAUGCUAGACUAAUACUATT against Mftc	inactive: -0.233
CCCUCUUAGUAACUGGCUCTT against D330022A01Rik	inactive: -0.836

A few values from the entries so far.
In z-score, GGGCUUUAAGGAAAAGUUUTT against 2010110M21Rik is listed with inactive: -0.358
In z-score, CCCUCUUAGUAACUGGCUCTT against D330022A01Rik is listed with inactive: -0.836

(listing goes on)

Sequence	z-score
GGUGUUGUUUCGAAUUAUUTT against Xrn1	inactive: -0.117
CGUGGACGGAAAUGUUAAUTT against Trpc3	inactive: -0.403
GGAAAAAAAAAUGUCCUUGTT against Rit2	inactive: 0.838
GCUACGUUUACUGACCACATT against Bcat1	inactive: 1.07
CGGCUUCCCAAAAGAUGUGTT against Aire	inactive: 0.465
GGGAUAAGAGAGCAAUUAATT against Dub1	inactive: 0.859
GGAGCUAUGGCUCAUACAUTT against Spire1	inactive: -0.517
GGGCACAUAUAAACUUAUUTT against Dnaic1	inactive: 0.258
CGUACUUGCCUAUGUAUAGTT against A830031A19Rik	inactive: -1.67
GCGCAUACCUGUGUGUCAUTT against Tyk2	inactive: 1.26
GGUUUUUGUGUGGAUCUAUTT against Tloc1	inactive: -1.21
CGGAUGAAAGUGUCUUGAUTT against Slbp	inactive: -0.41
GGACCAGCUUUUUAAUGUUTT against Prpsap2	inactive: -0.13
GGAGCUGUUUCUGUUAUUGTT against F8a	inactive: 1.64
GGAAGAACACAAAACUGACTT against Cdkn1b	inactive: 0.326
CGUGAAUUAUGGAAAUUAGTT against A630033H20Rik	inactive: -0.00288
GCAUCUUAUUUAAUUCCCATT against Mrpl39	inactive: -0.94
CCUUUCAGCUUACAUUUAATT against Cyp4a12	inactive: 0.599
GCUAUGUAUCCCACCAAAATT against Enpp3	inactive: -0.0183
GGUAACAAUCACCAUAUUCTT against 1700029F12Rik	inactive: 0.224
GCCACGGAGAUAGCAGUUUTT against Hmgcll1	inactive: 0.422
CCGUGUGGAGGUACCCAUUTT against Zp3	inactive: 2.34
CGAGAUGAAAUAUACAGAUTT against C030046M14Rik	inactive: 0.139
GGAUGAGGCCAUCCUCAAGTT against Rps6ka1	inactive: 0.909
GGAUCUGAAAUGAACCAGCTT against Rpl38	inactive: -2.47
GCUCAUAAGUUUCUAAGGATT against Rab22a	inactive: -0.0876

Sequence	z-score
CCUAACAACCGCUCUUGUGTT against Efemp2	inactive: -0.112
GGCAACUCUCAAUUGCACATT against Olfr1325	inactive: 1.35
GGAGCAUCUAUGAUUACAATT against 2400003L07Rik	inactive: -0.298
GCCAAGGAGAUCAUAAAAUTT against Klk14	inactive: -0.541
CCCUUCUGUCUGUCUGAAGTT against Olfr247	inactive: -0.281
GCUUCAGGAGCUCUACUGUTT against Catsper3	inactive: 0.398
GGGAUUUCCUUCAUCAUUATT against Gtf2i	inactive: 1.41
GGAUAUAACUGCUAUGGUUTT against Rhebl1	inactive: 1.21
GGCCGGAGCAUCACAAUUUTT against Vamp1	inactive: -1.75
GCUCCAACAAGGCAUAAAATT against 2810028N01Rik	inactive: -0.635
GGCUGUUUGGCUUGUUUAATT against Golga7	inactive: -0.501
GCACUAGCACACACGAUUUTT against Upp1	inactive: -0.804
CCCUUUAUGAUAGGUUUUATT against V1rj3	inactive: -0.676
GGAAUGUUGACUUAAAGGATT against Crot	inactive: -0.838
GGACAAGACCAGCAAAUACTT against Six6	inactive: -0.149
GGAAGACUACGAUCAAUGGTT against Pafah2	inactive: 1.1
GGCUUUGUAUUUGUUUAUGTT against Gdap1	inactive: 1.38
CCCGAAUUGACAACAUCGUTT against Olfr855	inactive: -0.5
GGCACUGGAAAUAAAACCCTT against S100a14	inactive: 0.348
GCGACGGCUUAUAUGGGUUTT against 4930504O13Rik	inactive: -0.144
GGAAUAACUUUCCAUACCATT against BC011426	inactive: -0.0291
CGCCAUGAAUGUGAUUGGATT against Myo1e	inactive: -0.718
GGAUCAGAUAAAGCAAAUUTT against Eif3s9	inactive: -3.16
UAUGGGCCCUUGUCCUCUGTT against Gpr40	inactive: -0.544
CCUCCAGGUGUUGAUCUGUTT against Btbd11	inactive: -0.0554
GGAGACUUGAAAACAAUUATT against Brd2	inactive: -0.82

Retrieved one by one from the list above (5):
Sequence	z-score
GGCACUGGAAAUAAAACCCTT against S100a14	inactive: 0.348
GGAGACUUGAAAACAAUUATT against Brd2	inactive: -0.82
GGAUAUAACUGCUAUGGUUTT against Rhebl1	inactive: 1.21
GGCUUUGUAUUUGUUUAUGTT against Gdap1	inactive: 1.38
UAUGGGCCCUUGUCCUCUGTT against Gpr40	inactive: -0.544

Additional entries.

Sequence	z-score
GGUCCUGGACAAAGUGUUUTT against Tubgcp5	inactive: 0.63
GGUCAAAAUAGAAGGAGUATT against Klhl4	inactive: 2.64
GCUUCACGUUGGCUUUCCUTT against V2r1	inactive: -0.183
GCCAAGAAAGAUCAUUGACTT against Mlstd1	inactive: -0.494
UUGAGAGGCAAAGAGUGGUTT against Olfr1166	inactive: 0.622
CGAGCUGUUAGAAUUCAGATT against Gababrbp	inactive: 0.354
GGGUGAGCCUUCCUGAAAATT against Pcdhgb4	inactive: -3.17
CCUACAAGACUGUCUCUGGTT against Atp6v1b2	inactive: -2.46
GGUCAUGAGUAUUUUGACUTT against 4930429H24Rik	inactive: 0.362
GGCAAUAUCCAGGAGACAGTT against 1810036H07Rik	inactive: 1.81
GGCUGAGAAACUGGAUGAATT against Rem1	inactive: -1.65
GGUUUUGAGCAUUAAUGUGTT against Dhrs4	inactive: -0.282
GGCCUUUUCCAUAAACUUUTT against BC013672	inactive: -0.0686
CCCAGUCACAAUAUUUUCUTT against Ssbp1	inactive: 0.538
GGAUGCUAUUUUUGAAACCTT against Wins2	inactive: 0.815
GCCGACAUCUCCAAGAGAUTT against Cdk5rap3	inactive: -1.07
CCACUCUCACCAGCUUUAUTT against Tm7sf2	inactive: -0.134
GGAGUUGGAGGAAAGAAUUTT against Csh2	inactive: -0.327
GCCGGGCUCGCCCUGCUCCTT against MGC41689	inactive: 0.858
GGAACCACUGCUAGCCAGATT against Serpinb6a	inactive: -1.9
GCCCUGUUUAGAACCAUCATT against Gna14	inactive: -0.0577
CCAAGUACUACAAUUUCCATT against Oasl2	inactive: 0.094
GGAGAUAGAGUUACCUUUGTT against Nbn	inactive: -1.59
GGUUCUCAGAGCCAGAAAUTT against Dtprp	inactive: -0.413
GGAGAUUUUCCAAAAUGUGTT against Proc	inactive: 0.802
GGUGGCUUCUGCUUAUUUCTT against Slc13a1	inactive: 0.721
